The list does not hold the whole screen: it is rich in T/C values a quarter to a half above the control, in often repeated tests (any T/C) and in doses without a T/C. Other doses and runs of a compound stand elsewhere. T/C is the treated group as % of the vehicle group. Some entries give survivors of the animals treated and no T/C: the source files T/C as zero there, which appears to mark a toxic dose or a test without result, not a measured value. Some survivor counts are full or nearly so, which does not show that the dose was tolerated: survival well below the control is almost never listed, so the zero probably covers shortened survival too. Survivors were counted at the toxicity check, usually on the fifth day, unless a day is given; later deaths do not show. Schedules are NCI's codes, taken here to give the interval after Q, in days (D) or hours (H), and the number of doses after X. Some doses were run more than once; the values are given in rising order. For survival time, this PubChem deposit counts one and a half times the control or more as active, and values a quarter to a half above the control carry no call in these data; other NCI protocols may use other cut-offs. Some T/C values carry the count of animals alive at the toxicity check (mostly the fifth day); where none is given, no animal had died by that day.
Tested on: CD2F1 mice, L1210 leukemia ip, survival T/C
Assay: NCI In Vivo Anticancer Drug Screen. Data for tumor model L1210 Leukemia (intraperitoneal) in CD2F1 (CDF1) mice
Details: higher T/C = longer survival
How it was run: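 Ratio T/C, where T is the treated-group value and C the vehicle-dosed control value, from mice implanted with a transplantable tumor.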

[1] = T/C endpoint: mean survival time, dose: 200.0 mg/kg/injection, schedule: Q01DX009 (ip), vehicle: saline with Tween-80
[2] = T/C endpoint: mean survival time, dose: 75.0 mg/kg/injection, schedule: Q01DX001 (ip), vehicle: saline
[3] = T/C endpoint: mean survival time, dose: 300.0 mg/kg/injection, schedule: Q01DX001 (ip), vehicle: saline
[4] = T/C endpoint: mean survival time, dose: 400.0 mg/kg/injection, schedule: Q04DX003 (ip), vehicle: saline with Tween-80
[5] = T/C endpoint: mean survival time, dose: 200.0 mg/kg/injection, schedule: Q04DX003 (ip), vehicle: saline with Tween-80

Question: Which survivor count (T/C endpoint: mean survival time, dose: 50.0 mg/kg/injection, schedule: Q01DX009 (ip), vehicle: Klucel (hydroxypropylcellulose) (HPC)) does the source give for O=c1scc(-c2ccc(Br)cc2)s1 here?
Answer: The survivor count was 1 of 6 and 2 of 6.

Question: What about the survivor count (T/C endpoint: mean survival time, dose: 100.0 mg/kg/injection, schedule: Q01DX009 (ip), vehicle: Klucel (hydroxypropylcellulose) (HPC)) of the same molecule?
Answer: Its survivor count is 0 of 6.

Question: And the survivor count (T/C endpoint: mean survival time, dose: 200.0 mg/kg/injection, schedule: Q01DX009 (ip), vehicle: Klucel (hydroxypropylcellulose) (HPC))?
Answer: The survivor count was 0 of 6.

Question: Which results are given for Nc1nc(N)c2nc3c4ccccc4c4ccccc4c3nc2n1?
Answer: survivor count [1]: 2 of 6; survivor count (T/C endpoint: mean survival time, dose: 400.0 mg/kg/injection, schedule: Q01DX009 (ip), vehicle: saline with Tween-80): 3 of 6

Question: For O=c1[nH]c(=O)n(C2CC(O)C(CO)O2)cc1I (centres undefined), which T/C (T/C endpoint: mean survival time, dose: 125.0 mg/kg/injection, schedule: Q01DX009 (ip), vehicle: saline) is on record?
Answer: The T/C was 136 % of control.

Question: And the T/C (T/C endpoint: mean survival time, dose: 250.0 mg/kg/injection, schedule: Q01DX009 (ip), vehicle: saline)?
Answer: Its T/C is 148 % of control [5 of 6 alive].

Question: For O=c1cccc[nH]1 (tested in a mixture with another compound), which survivor count (T/C endpoint: mean survival time, dose: 100.0 mg/kg/injection, schedule: Q01DX009 (ip), vehicle: saline with Tween-80) is on record?
Answer: The survivor count was 6 of 6.

Question: And the survivor count [1]?
Answer: The survivor count was 0 of 6.

Question: What about the survivor count (T/C endpoint: mean survival time, dose: 400.0 mg/kg/injection, schedule: Q04DX003 (ip), vehicle: saline) of the same molecule?
Answer: Its survivor count is 2 of 6.

Question: Which T/C (T/C endpoint: mean survival time, dose: 6.0 mg/kg/injection, schedule: Q01DX009 (ip), vehicle: suspension in saline) does the source give for CCCCCCCC(=O)N/N=C(\CO)[C@]1(O)Cc2c(O)c3c(c(O)c2[C@@H](OC2CC(N)C(O)C(C)O2)C1)C(=O)c1c(OC)cccc1C3=O (some centres undefined) here?
Answer: Its T/C is 131 % of control.

Question: What about the T/C (T/C endpoint: mean survival time, dose: 12.0 mg/kg/injection, schedule: Q01DX009 (ip), vehicle: saline) of the same molecule?
Answer: The T/C was 138 % of control.

Question: What about the T/C (T/C endpoint: mean survival time, dose: 24.0 mg/kg/injection, schedule: Q01DX009 (ip), vehicle: saline) of the same molecule?
Answer: Its T/C is 126 % of control.

Question: And the T/C (T/C endpoint: mean survival time, dose: 24.0 mg/kg/injection, schedule: Q01DX009 (ip), vehicle: suspension in saline)?
Answer: The T/C was 141 % of control.

Question: What about the T/C (T/C endpoint: mean survival time, dose: 48.0 mg/kg/injection, schedule: Q01DX009 (ip), vehicle: saline) of the same molecule?
Answer: Its T/C is 148 % of control.

Question: What about the T/C (T/C endpoint: mean survival time, dose: 96.0 mg/kg/injection, schedule: Q01DX009 (ip), vehicle: suspension in saline) of the same molecule?
Answer: The T/C was 146 % of control.

Question: For CCN(CC)c1ccc(N=Nc2c(C)nc(N)nc2-c2ccccc2)cc1, which survivor count [2] is on record?
Answer: The survivor count was 0 of 6.

Question: And the survivor count [3]?
Answer: Its survivor count is 1 of 6.

Question: With CCCCCCCCCCCCCCCC(=O)N(CCCN)C(C)(C)CCC(C)(C)N(CCCN)C(=O)CCCCCCCCCCCCCCC as the molecule, how does the survivor count (T/C endpoint: mean survival time, dose: 50.0 mg/kg/injection, schedule: Q01DX009 (ip), vehicle: water) read?
Answer: Its survivor count is 5 of 6.

Question: And the survivor count (T/C endpoint: mean survival time, dose: 100.0 mg/kg/injection, schedule: Q01DX009 (ip), vehicle: water)?
Answer: Its survivor count is 1 of 6.

Question: And the survivor count (T/C endpoint: mean survival time, dose: 200.0 mg/kg/injection, schedule: Q01DX009 (ip), vehicle: water)?
Answer: Its survivor count is 0 of 6.

Question: And the survivor count (T/C endpoint: mean survival time, dose: 400.0 mg/kg/injection, schedule: Q01DX009 (ip), vehicle: water)?
Answer: The survivor count was 0 of 6.

Question: How did the survivor count [4] turn out when Cc1ccc(C(=O)O)s1 was run?
Answer: Its survivor count is 0 of 6.

Question: c1ccc(CCNCc2ccccc2)cc1 was tested. Which survivor count [5] did it give?
Answer: The survivor count was 1 of 6.

Question: For Cc1cccc(NC2=NCCO2)c1, which survivor count (T/C endpoint: mean survival time, dose: 400.0 mg/kg/injection, schedule: Q01DX001 (ip), vehicle: saline with Tween-80) is on record?
Answer: The survivor count was 0 of 6.

Question: COc1ccc(OC)c(C(=O)C[n+]2ccccc2)c1 was tested. Which survivor count (T/C endpoint: mean survival time, dose: 100.0 mg/kg/injection, schedule: Q04DX003 (ip), vehicle: saline with Tween-80) did it give?
Answer: The survivor count was 6 of 6.

Question: What about the survivor count [5] of the same molecule?
Answer: The survivor count was 1 of 6.

Question: And the survivor count [4]?
Answer: The survivor count was 1 of 6.

Question: With NC(CS/C=C\C(=O)O)C(=O)O (centres undefined) as the molecule, how does the survivor count [5] read?
Answer: The survivor count was 5 of 6.

Question: Which survivor count (T/C endpoint: mean survival time, dose: 100.0 mg/kg/injection, schedule: Q01DX009 (ip), vehicle: other) does the source give for CC(=O)[CH-]C(C)=O.CC(=O)[CH-]C(C)=O.CC(N)CN.[Ni+2] here?
Answer: The survivor count was 6 of 6.

Question: And the survivor count (T/C endpoint: mean survival time, dose: 200.0 mg/kg/injection, schedule: Q01DX009 (ip), vehicle: other)?
Answer: The survivor count was 2 of 6.

Question: Which survivor count (T/C endpoint: mean survival time, dose: 40.0 mg/kg/injection, schedule: Q01DX001 (ip), vehicle: saline) does the source give for CC[S-].CC[S-].[Ni+2] here?
Answer: Its survivor count is 2 of 6.

Question: And the survivor count [2]?
Answer: The survivor count was 0 of 6.

Question: And the survivor count (T/C endpoint: mean survival time, dose: 80.0 mg/kg/injection, schedule: Q01DX001 (ip), vehicle: saline)?
Answer: Its survivor count is 1 of 6.

Question: What about the survivor count (T/C endpoint: mean survival time, dose: 150.0 mg/kg/injection, schedule: Q01DX001 (ip), vehicle: saline) of the same molecule?
Answer: Its survivor count is 0 of 6.

Question: What about the survivor count [3] of the same molecule?
Answer: Its survivor count is 0 of 6.

Question: With CC12C(=O)OC(=O)C1(C)C1OC2C(Br)C1Br (centres undefined) as the molecule, how does the survivor count [5] read?
Answer: The survivor count was 3 of 6.

Question: And the survivor count [4]?
Answer: The survivor count was 1 of 6.

Question: With Nc1nc2ncc(CNc3ccc(C(=O)NC(CCC(=O)O)C(=O)O)cc3)nc2c(=O)[nH]1.[NH-]C1CCCCC1[NH-].[Pt+2] (centres undefined) as the molecule, how does the T/C (T/C endpoint: median survival time, dose: 200.0 mg/kg/injection, schedule: Q04DX003 (ip), vehicle: saline) read?
Answer: The T/C was 128 % of control.
